The campaign covered roughly 1,800 compounds. About 710 (39%) were called active. About 28% were inconclusive and are not listed.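 How the source made its calls: active means luciferase signal rise whose fitted curve crosses a set activity limit at or below the top valid tested dose; inconclusive means flat fit with 30 to 70% rise, or poor fit; inactive means signal falling, flat within 30%, or crossing above top dose.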 The list shows a part of the results, in another mix than the full data. Potency and affinity values are given separately.
Test: reporter signal increase, D54 LucT cells – cell-based, luminescence, cherry pick, counter-screen for N-linked glycosylation inhibitor project, dose response (AID 624404);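 further: 0% = median neutral control signal and 100% = twice that signal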
Details: D54 LucT luciferase reporter counterscreen, 24 h; at 19.5 µM (top of the series)

Row | SMILES | activity increase (luciferase signal)
1 | CC(C)N1C(=O)/C(=C/C=C/c2ccco2)C(=O)N(Cc2ccco2)C1=O | inactive: 13.5%
2 | Cc1ccc(-c2nc(N(C)C3CCN(C)CC3)c3ccccc3n2)cc1 | inactive: 51.2%
3 | CN1CN(c2ccccc2)C2(CCN(CCCSc3ccccc3NC(=O)/C=C/c3ccccc3)CC2)C1=O | inactive: -49.9%
4 | CNC(=O)c1cccn(Cc2cc(C(F)(F)F)cc(C(F)(F)F)c2)c1=O | inactive: 40.2%
5 | O=C1NC(=O)N(c2ccccc2)C(=O)/C1=C/C=C/c1ccco1 | inactive: 25.5%
6 | CN(C)c1ccc(/C=C/C=C/c2sc3ccccc3[n+]2C)cc1 | inactive: -48.2%
7 | Cc1cc(C)cc(N2C(=O)NC(=O)/C(=C\C=C\c3ccco3)C2=O)c1 | inactive: -42.4%
8 | Cc1cc(C)nc(N2Cc3ccccc3C2=N)n1 | inactive: 36.9%
9 | C=CCN=C(SCC(=O)c1ccc(Cl)cc1)c1c(O)n(C)c(=O)n(C)c1=O | inactive: 35.5%
10 | COC(=O)C1=C(c2cc3ccccc3s2)C[C@@H]2CC[C@H]1N2C(=O)N1CCOCC1 | inactive: 25.6%
11 | CN1C(=O)C(=Cc2sc(=O)n(-c3ccccc3)c2N(C)C)C(=O)N(C)C1=O | inactive: 37.7%
12 | Cc1ccc(N2C(=O)NC(=O)/C(=C\C=C\c3ccco3)C2=O)cc1C | inactive: -14.1%
13 | Cn1cccc1/C=C1\C(=O)NC(=O)N(Cc2ccccc2Cl)C1=O | inactive: 0.633%
14 | COC(=O)C1=C(c2cc3ccccc3s2)C[C@@H]2CC[C@H]1N2C(=O)N1CCCCC1 | inactive: 4.2%
15 | COC(=O)C1=C(c2cc3ccccc3o2)C[C@@H]2CC[C@H]1N2C(=O)N1CCCCC1 | inactive: 21.4%
16 | COc1cc2c(cc1OC)-c1c3c(cc4c1[C@@H](C2)N(C)CC4)OCO3 | inactive: 26.9%
17 | O=C1Nc2ccccc2/C1=C/c1nc2ccccc2c(=O)n1-c1ccc(O)cc1 | inactive: -28.1%
18 | COC12CCC3(CC1C(C)(O)C(C)(C)C)[C@H]1Cc4ccc(O)c5c4[C@@]3(CCN1CC1CC1)C2O5 (stereo partly specified) | inactive: -11.4%
19 | Nc1c(C(=O)OCC2CCCO2)c2nc3ccccc3nc2n1Cc1cccs1 (stereo unspecified) | inactive: -5%
20 | COC(=O)C1=C(c2cc3ccccc3o2)C[C@@H]2CC[C@H]1N2C(=O)N1CCOCC1 | inactive: 37.2%
21 | CCC(C)OC(=O)c1c(N)n(Cc2cccs2)c2nc3ccccc3nc12 (stereo unspecified) | inactive: -4.78%

Arranged by SMILES length (smallest number first): some entries from above
Row | SMILES | activity increase (luciferase signal)
2 | Cc1ccc(-c2nc(N(C)C3CCN(C)CC3)c3ccccc3n2)cc1 | inactive: 51.2%
7 | Cc1cc(C)cc(N2C(=O)NC(=O)/C(=C\C=C\c3ccco3)C2=O)c1 | inactive: -42.4%
10 | COC(=O)C1=C(c2cc3ccccc3s2)C[C@@H]2CC[C@H]1N2C(=O)N1CCOCC1 | inactive: 25.6%

Source: PubChem BioAssay AID624404 (Broad Institute, 2012)
